The target in this test is HECT and RLD domain-containing E3 ubiquitin-protein ligase 2 (HERC2) (human (endogenous in Huh7)) (UniProt O95714). The test is described as follows: affinity purification with mass spectrometry; Huh7 cells treated with 50 ng/ml IL-6 for 20 min; lysate precipitated with an antibody against HERC2, SDS-PAGE, silver staining; band at 40-55 kDa cut out and analysed by 4-D label-free quantitative proteomics.

By UniProt entry, the sequences of proteins in these tests, tags left out.
UniProt O95714: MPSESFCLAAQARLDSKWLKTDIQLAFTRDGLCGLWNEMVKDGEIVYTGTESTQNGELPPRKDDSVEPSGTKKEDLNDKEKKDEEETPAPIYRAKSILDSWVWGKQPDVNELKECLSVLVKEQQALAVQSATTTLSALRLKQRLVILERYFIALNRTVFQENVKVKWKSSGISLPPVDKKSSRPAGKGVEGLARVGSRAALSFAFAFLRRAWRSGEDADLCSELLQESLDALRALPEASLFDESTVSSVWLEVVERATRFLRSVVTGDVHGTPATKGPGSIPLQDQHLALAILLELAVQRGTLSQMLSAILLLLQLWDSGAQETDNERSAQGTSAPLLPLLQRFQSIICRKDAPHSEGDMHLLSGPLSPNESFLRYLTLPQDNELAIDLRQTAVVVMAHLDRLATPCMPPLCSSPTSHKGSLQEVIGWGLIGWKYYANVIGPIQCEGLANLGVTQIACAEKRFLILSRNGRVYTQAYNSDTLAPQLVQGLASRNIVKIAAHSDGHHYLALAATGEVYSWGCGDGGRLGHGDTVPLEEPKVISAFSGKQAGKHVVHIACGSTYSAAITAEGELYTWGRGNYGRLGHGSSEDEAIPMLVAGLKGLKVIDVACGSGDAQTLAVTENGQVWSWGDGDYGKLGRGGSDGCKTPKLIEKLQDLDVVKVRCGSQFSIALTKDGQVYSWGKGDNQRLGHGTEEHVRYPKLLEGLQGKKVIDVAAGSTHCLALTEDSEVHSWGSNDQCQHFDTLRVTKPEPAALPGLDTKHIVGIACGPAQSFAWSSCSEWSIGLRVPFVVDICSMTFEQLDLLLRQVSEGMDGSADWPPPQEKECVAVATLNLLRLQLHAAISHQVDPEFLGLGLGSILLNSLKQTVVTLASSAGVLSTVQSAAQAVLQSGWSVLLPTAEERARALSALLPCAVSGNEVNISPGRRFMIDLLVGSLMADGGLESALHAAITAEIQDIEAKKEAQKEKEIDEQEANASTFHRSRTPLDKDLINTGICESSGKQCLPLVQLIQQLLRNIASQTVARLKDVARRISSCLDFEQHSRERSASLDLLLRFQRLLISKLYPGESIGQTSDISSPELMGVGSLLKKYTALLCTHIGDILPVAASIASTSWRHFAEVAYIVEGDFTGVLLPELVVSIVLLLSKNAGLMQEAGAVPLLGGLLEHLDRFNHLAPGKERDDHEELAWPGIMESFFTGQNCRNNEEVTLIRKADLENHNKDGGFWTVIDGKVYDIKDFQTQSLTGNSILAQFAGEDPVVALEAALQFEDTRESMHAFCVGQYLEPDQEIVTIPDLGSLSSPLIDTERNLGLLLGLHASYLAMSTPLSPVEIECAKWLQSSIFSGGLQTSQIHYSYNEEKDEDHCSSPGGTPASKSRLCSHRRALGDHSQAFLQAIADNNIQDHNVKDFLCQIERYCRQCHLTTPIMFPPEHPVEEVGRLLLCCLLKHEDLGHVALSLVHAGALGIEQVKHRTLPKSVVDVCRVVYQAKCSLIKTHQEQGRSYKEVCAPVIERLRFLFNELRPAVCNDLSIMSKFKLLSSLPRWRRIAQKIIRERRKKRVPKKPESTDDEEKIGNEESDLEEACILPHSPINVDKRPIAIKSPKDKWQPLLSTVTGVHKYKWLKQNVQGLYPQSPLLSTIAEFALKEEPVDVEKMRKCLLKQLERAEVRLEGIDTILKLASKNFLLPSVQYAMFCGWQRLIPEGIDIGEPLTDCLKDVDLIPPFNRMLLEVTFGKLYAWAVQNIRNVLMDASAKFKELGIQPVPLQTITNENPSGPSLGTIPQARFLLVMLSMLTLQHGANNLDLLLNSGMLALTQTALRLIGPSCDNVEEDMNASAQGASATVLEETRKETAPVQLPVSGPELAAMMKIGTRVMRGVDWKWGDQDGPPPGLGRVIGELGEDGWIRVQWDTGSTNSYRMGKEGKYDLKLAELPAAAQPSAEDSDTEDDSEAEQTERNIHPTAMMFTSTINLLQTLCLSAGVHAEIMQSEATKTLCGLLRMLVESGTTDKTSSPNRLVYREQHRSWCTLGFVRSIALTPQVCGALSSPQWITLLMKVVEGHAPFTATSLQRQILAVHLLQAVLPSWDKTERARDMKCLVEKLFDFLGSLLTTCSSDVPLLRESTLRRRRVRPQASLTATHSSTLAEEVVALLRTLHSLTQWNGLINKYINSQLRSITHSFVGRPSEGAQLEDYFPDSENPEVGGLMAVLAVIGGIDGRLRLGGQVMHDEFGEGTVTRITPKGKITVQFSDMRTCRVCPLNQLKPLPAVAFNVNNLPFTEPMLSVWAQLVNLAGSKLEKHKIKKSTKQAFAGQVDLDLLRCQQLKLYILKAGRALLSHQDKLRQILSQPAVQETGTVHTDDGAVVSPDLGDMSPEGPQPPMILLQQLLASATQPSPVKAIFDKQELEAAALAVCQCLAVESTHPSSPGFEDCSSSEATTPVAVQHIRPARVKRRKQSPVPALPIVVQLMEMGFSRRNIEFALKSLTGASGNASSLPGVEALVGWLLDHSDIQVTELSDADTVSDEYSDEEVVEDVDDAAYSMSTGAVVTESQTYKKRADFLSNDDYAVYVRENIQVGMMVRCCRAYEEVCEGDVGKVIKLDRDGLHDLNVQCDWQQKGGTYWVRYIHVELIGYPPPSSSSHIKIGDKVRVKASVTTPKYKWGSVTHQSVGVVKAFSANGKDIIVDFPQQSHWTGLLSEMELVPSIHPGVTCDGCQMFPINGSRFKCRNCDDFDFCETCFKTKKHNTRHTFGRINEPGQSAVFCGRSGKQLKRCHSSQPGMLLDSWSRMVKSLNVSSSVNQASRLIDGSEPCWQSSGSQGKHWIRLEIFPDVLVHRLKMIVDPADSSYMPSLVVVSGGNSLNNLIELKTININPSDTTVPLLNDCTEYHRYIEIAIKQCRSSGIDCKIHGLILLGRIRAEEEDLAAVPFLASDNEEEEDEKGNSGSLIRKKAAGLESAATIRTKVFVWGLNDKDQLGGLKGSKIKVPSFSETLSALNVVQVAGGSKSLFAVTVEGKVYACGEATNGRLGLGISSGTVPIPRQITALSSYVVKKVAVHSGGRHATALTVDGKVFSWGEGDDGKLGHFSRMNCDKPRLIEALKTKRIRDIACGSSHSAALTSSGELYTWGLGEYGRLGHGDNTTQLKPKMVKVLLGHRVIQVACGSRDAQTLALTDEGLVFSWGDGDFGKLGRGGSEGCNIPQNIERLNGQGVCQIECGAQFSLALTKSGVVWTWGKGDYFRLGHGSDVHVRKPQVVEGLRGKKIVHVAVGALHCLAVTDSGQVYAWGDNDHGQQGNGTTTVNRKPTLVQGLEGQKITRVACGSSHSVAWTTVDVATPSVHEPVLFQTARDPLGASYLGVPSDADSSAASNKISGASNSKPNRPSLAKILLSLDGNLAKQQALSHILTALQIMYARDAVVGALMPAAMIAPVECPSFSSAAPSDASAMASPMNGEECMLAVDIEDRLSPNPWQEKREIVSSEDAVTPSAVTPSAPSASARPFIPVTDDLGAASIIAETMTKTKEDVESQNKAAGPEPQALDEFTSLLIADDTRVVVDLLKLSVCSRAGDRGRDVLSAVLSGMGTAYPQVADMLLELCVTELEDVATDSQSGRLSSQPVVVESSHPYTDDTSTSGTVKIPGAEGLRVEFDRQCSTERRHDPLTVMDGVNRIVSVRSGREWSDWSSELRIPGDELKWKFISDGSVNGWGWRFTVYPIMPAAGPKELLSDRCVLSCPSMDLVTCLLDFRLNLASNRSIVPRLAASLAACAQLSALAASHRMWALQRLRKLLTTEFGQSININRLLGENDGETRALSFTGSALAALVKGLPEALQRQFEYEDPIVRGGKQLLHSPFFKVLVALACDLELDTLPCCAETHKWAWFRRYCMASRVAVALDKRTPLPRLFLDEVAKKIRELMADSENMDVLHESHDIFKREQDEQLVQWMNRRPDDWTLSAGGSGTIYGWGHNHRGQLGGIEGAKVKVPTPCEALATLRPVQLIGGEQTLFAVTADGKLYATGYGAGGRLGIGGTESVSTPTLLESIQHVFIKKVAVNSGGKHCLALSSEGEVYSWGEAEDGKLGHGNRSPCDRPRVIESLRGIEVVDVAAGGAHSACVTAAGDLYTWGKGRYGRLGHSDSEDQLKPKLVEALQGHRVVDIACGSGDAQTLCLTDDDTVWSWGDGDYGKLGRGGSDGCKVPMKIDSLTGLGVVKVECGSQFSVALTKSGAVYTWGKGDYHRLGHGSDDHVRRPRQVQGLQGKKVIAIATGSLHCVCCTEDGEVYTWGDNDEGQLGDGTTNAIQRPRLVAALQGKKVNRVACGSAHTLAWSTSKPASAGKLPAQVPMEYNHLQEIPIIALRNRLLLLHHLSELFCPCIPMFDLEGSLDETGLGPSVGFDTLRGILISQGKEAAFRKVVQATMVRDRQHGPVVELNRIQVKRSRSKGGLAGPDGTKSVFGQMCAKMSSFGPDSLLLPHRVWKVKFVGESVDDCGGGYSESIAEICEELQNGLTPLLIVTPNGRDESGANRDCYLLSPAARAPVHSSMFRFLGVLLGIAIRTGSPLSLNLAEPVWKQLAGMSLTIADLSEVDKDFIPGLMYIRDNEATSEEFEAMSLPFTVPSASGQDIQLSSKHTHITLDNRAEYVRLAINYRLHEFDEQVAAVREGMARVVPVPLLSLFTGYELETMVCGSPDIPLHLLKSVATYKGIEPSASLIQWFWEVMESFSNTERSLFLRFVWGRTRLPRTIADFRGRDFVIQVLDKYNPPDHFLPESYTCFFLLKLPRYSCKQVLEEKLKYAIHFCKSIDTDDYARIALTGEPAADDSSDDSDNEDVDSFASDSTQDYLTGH

Results are given in words; binding and its absence hold for the method and conditions named. Binding seen in cells or lysates may run through a third protein. These calls come from enrichment with a bait or labelling near it, and not all partners need be listed.

We go through 1 molecule from article PMC9890722.

B1: protein tyrosine phosphatase 1B (PTP1B) (protein, UniProt P18031 1-435)
chain: MEMEKEFEQIDKSGSWAAIYQDIRHEASDFPCRVAKLPKNKNRNRYRDVSPFDHSRIKLHQEDNDYINASLIKMEEAQRSYILTQGPLPNTCGHFWEMVWEQKSRGVVMLNRVMEKGSLKCAQYWPQKEEKEMIFEDTNLKLTLISEDIKSYYTVRQLELENLTTQETREILHFHYTTWPDFGVPESPASFLNFLFKVRESGSLSPEHGPVVVHCSAGIGRSGTFCLADTCLLLMDKRKDPSSVDIKKVLLEMRKFRMGLIQTADQLRFSYLAVIEGAKFIMGDSSVQDQWKELSHEDLEPPPEHIPPPPRPPKRILEPHNGKCREFFPNHQWVKEETQEDKDCPIKEEKGSPLNAAPYGIESMSQDTEVRSRVVGGSLRGAQAASPAKGEPSLPEKDEDHALSYWKPFLVNMCVATVLTAGAYLCYRFLFNSNT
Consider B1, for which the binding result is given as “binds”.
